Earlier results, collected in EP2156836A1, “[…] PHARMACEUTICAL COMPOSITIONS CONSISTING OF A COMBINATION OF A 5 alpha-REDUCTASE ENZYME INHIBITOR AND A 1 alpha- […] RECEPTOR ANTAGONIST” (priority 2007, dated 2008).
At least one read-out could not be matched to a standard name with certainty.

Conditions: absorbed in gastrointestinal tract; cited from earlier work

## COc1cc2nc(N3CCN(C(=O)C4COc5ccccc5O4)CC3)nc(N)c2cc1OC (stereo not shown) [Doxazosine]
  bioavailability: about 65%
